# Measurements reported in PubChem BioAssay AID504786 (Drosophila RNAi Screening Center, 2011).
# Aim: 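Positive regulators of HIF-driven reporter output in Drosophila cells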 (primary screen)
# System: Drosophila S2 cells with a stable HIF luciferase reporter
# Reagent: long dsRNA against Drosophila genes, about 0.2 µg dsRNA per well of a 384-well plate
# Duration: three days of knock-down, then 20 h of DFO before reading
# Conditions: desferrioxamine (DFO) at 100 µM, an iron chelator that mimics hypoxia, for 20 h
# Detection: 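Firefly luciferase driven by the mouse ldh-a hypoxia-response element, measured after 20 h of 100 µM DFO; z-scores per plate, higher means more signal lost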
# Reading the numbers: z-score: higher = stronger loss of HIF reporter signal
# In all, the deposit lists about 21,000 reagents; below is an unselected part of those with a known target gene and a result. 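Primary screen; positive scores mean lost reporter signal, so the sign may be inverted from the usual convention.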 Names joined by + are all predicted targets of the reagent. Reagent sequences are not shown.
"z-score, replicate 1","z-score, replicate 2","z-score, replicate 3","z-score, replicate 4",Target gene,DRSC id
0.4,1.5,,,egg,DRSC04119
-0.2,-0.1,,,Cubn2,DRSC10561
0.1,0.3,,,RagA-B,DRSC14450
0.4,0.2,,,CG15696,DRSC15118
-0.3,-0.2,,,Mat1,DRSC07465
-0.3,-0.2,,,Shawl,DRSC02209
-0.3,-0.6,,,Shawl,DRSC02748
-0.1,0.1,,,ATPsynbetaL,DRSC10503
0.1,-0.1,,,CG8323,DRSC07149
-0.2,-0.2,,,scf,DRSC08735
-0.1,0.4,,,PGRP-LD + Pmi,DRSC10512
-0.4,-0.7,,,PGRP-LD + Pmi,DRSC10513
-0.3,-0.6,,,CheA75a,DRSC10807
-0.3,-0.1,,,Dcp-1,DRSC04609
-0.3,-0.5,,,ckd,DRSC08418
-0.4,3.8,,,Chrac-16,DRSC20343
-0.2,0.3,,,CR14798,DRSC17956
-0.1,-0.1,,,CG14605,DRSC12549
-0.2,0.2,,,Vdup1,DRSC08586
-0.3,-0.2,,,park + Targ3,DRSC11617
-0.1,-0.3,,,CG8236,DRSC16399
-0.3,-0.2,,,Mul1,DRSC08174
0.1,0.3,,,CG30222,DRSC04125
-0.2,-0.7,,,CG30222,DRSC04262
-0.4,0,,,Tat,DRSC19602
-0.3,-0.5,0.6,-0.2,CG6073,DRSC15962
-0.4,0.4,,,CG18682 (retired record),DRSC15373
-0.3,-0.3,0.4,0.3,CG18682 (retired record),DRSC15374
-0.3,-0.4,,,zye,DRSC11784
-0.1,0.2,,,conu,DRSC07810
0.4,0.3,,,gprs,DRSC06761
-0.4,-0.3,,,PCB,DRSC05939
-0.4,-0.4,,,CG4239,DRSC19885
-0.3,-0.3,,,Amacr,DRSC03198
-0.2,-0.9,,,CG43386,DRSC17980
0,-0.1,,,CG32638,DRSC18968
-0.3,-0.8,,,GM130,DRSC04617
-0.2,-0.3,,,CG7781,DRSC03068
-0.4,-0.6,,,Galphaq,DRSC07432
-0.2,0,,,heph,DRSC14082
0.1,-0.3,,,heph,DRSC14085
-0.4,-0.9,,,heph,DRSC15436
-0.3,-0.7,,,heph,DRSC16783
0,0,,,CG42402,DRSC21116
-0.3,-0.3,,,Capa,DRSC15058
-0.3,-0.1,,,CG12680,DRSC17871
-0.4,0.8,,,CG11231 (retired record),DRSC17207
0.1,0.4,,,Bdp1,DRSC03192
-0.5,-0.3,,,CG44001 + CG33995,DRSC00853
-0.1,-0.5,,,CG44001 + CG33995,DRSC02898
-0.4,-0.1,,,CG17754,DRSC18131
-0.4,-0.4,,,osk,DRSC17023
0.7,0.8,,,CG9213,DRSC20170
0.2,-0.6,,,Spt20,DRSC10280
-0.3,-0.7,,,narya,DRSC19439
-0.2,-0.5,,,CG7968,DRSC01903
0.5,-0.3,,,blot,DRSC09485
-0.4,-0.6,,,blot,DRSC11328
-0.1,-0.5,,,CG18266,DRSC02659
-0.2,-0.2,,,CG7856,DRSC04896
-0.1,-0.1,,,CG42795,DRSC12772
-0.2,-0.3,,,CG42795,DRSC15533
0.1,0.2,,,mof,DRSC18795
-0.3,-0.6,,,Coq7 + shf,DRSC18448
0.1,0.1,,,Hex-A,DRSC18259
-0.2,0.1,,,nbs,DRSC11373
-0.3,0,,,slpr,DRSC18225
-0.7,-0.7,,,dmrt93B,DRSC15865
2,2,,,Eip78C,DRSC11864
-0.1,0,,,CG32795,DRSC18609
-0.2,-0.7,,,CG32795,DRSC18610
-0.1,0.1,,,Uro,DRSC03469
4.1,4.9,,,Xrp1,DRSC15282
1.2,1.5,,,Xrp1,DRSC15283
-0.3,-0.6,,,CG15767,DRSC18073
0.1,-0.2,,,Csk,DRSC12861
-0.2,-0.3,,,Csk,DRSC15223
-0.3,-0.1,,,CG31637,DRSC02270
-0.2,-0.3,,,CG31637,DRSC03263
1.5,0.8,,,Gr39a,DRSC01841
1.2,0.3,,,Gr39a,DRSC01842
-0.2,0.2,,,ana2,DRSC05952
-0.4,-0.6,,,Cpr65Ec,DRSC11025
-0.3,-0.2,,,CG42245 + MEP-1,DRSC07993
-0.1,0.7,,,CG42245 + MEP-1,DRSC08274
-0.3,-0.4,,,trbl,DRSC11901
-0.3,-0.5,,,Ddc,DRSC03314
-0.3,-0.1,,,side-IV + CG17025 (retired record),DRSC15168
-0.2,0.2,,,CG15772,DRSC18078
-0.4,-0.6,,,hook,DRSC03545
-1.2,-0.9,,,Arc42,DRSC14340
-1.2,-0.6,,,Arc42,DRSC15627
0,-0.1,,,CG18190,DRSC06714
0.1,0.2,,,CG34163,DRSC01219
1.4,0.3,,,usp,DRSC18847
-0.3,-0.4,,,Dph1,DRSC09851
-0.2,-0.5,,,Vsp37A,DRSC18794
-0.1,-0.1,,,CG17177,DRSC10257
-0.1,0,,,igl,DRSC07631
-0.3,-0.6,,,Lrt,DRSC06045
-0.3,-0.3,,,CG4021,DRSC04439
-0.4,0,,,p38a,DRSC16743
-0.3,-0.6,,,CG17270,DRSC15209
-0.3,-0.5,,,bc10,DRSC11326
-0.2,0.1,,,CG13288,DRSC09962
-0.3,-0.3,,,CG5910,DRSC11786
